# Some of these results come from one statement about several compounds together.
# Legend:
# Sphaerotheca fuliginea = test: In vivo preventive test on Sphaerotheca fuliginea (cucurbit powdery mildew); conditions: gherkin plants, preventive spray, dose of 500 ppm, grading 11-12 days after contamination vs control plants
# [1] = test system: Mycosphaerella graminicola; test: In vivo preventive test on Mycosphaerella graminicola (wheat leaf spot); conditions: wheat plants, preventive spray, dose of 500 ppm, grading 21 to 28 days after contamination vs control plants
# Pyrenophora teres = test: In vivo preventive test on Pyrenophora teres (barley net blotch); conditions: barley plants, preventive spray, dose of 500 ppm, grading 12 days after contamination vs control plants
# [2] = test system: Puccinia recondita f. Sp. tritici; test: In vivo test on Puccinia recondita f. sp. tritici (wheat brown rust); conditions: wheat plants, spray 24 h before contamination, dose of 500 ppm, grading 10 days after contamination vs control plants
structure (smiles),measurement,setting,value
COc1nn(C)cc1C(=O)N(Cc1cccc2cccnc12)C1CC1 [Example 53],protection (% of efficacy),Sphaerotheca fuliginea,at least 70%
same,protection (% of efficacy),[1],at least 70%
Cc1ccc2ccccc2c1CN(C(=O)c1cn(C)nc1C(F)F)C1CC1 [Example 40],protection,Pyrenophora teres,at least 70%
same,protection (% of efficacy),Sphaerotheca fuliginea,at least 70%
same,protection (% of efficacy),[1],at least 70%
Cc1nn(C)c(F)c1C(=O)N(Cc1cccc2cnccc12)C1CC1 [Example 186],protection (% of efficacy),[1],at least 70%
CC(c1ccc(F)c2ccccc12)N(C(=O)c1cn(C)nc1C(F)F)C1CC1 (racemic) [Example 241],protection,Pyrenophora teres,at least 70%
same,protection (% of efficacy),Sphaerotheca fuliginea,at least 70%
same,protection (% of efficacy),[1],at least 70%
Cn1cc(C(=O)N(Cc2cccc3c([N+](=O)[O-])cccc23)C2CC2)c(C(F)F)n1 [Example 34],protection (% of efficacy),[1],at least 70%
Cc1nn(C)c(F)c1C(=O)N(Cc1ccnc2cc(Cl)cc(Cl)c12)C1CC1 [Example 97],protection (% of efficacy),[1],at least 70%
COc1nn(C)cc1C(=O)N(Cc1c(C)ccc2ccccc12)C1CC1 [Example 41],protection (% of efficacy),Sphaerotheca fuliginea,at least 70%
same,protection (% of efficacy),[1],at least 70%
Cc1cnc2cccc(CN(C(=O)c3cn(C)cc3C(F)(F)F)C3CC3)c2c1 [Example 161],protection (% of efficacy),[1],at least 70%
COc1ccc(CN(C(=O)c2c(C)nn(C)c2F)C2CC2)c2ccccc12 [Example 115],protection (% of efficacy),[1],at least 70%
Cn1cc(C(=O)N(Cc2cccc3cnccc23)C2CC2)c(C(F)F)n1 [Example 187],protection (% of efficacy),[1],at least 70%
Cn1cc(C(=O)N(Cc2cccc3c(C(F)(F)F)cccc23)C2CC2)c(C(F)(F)F)c1 [Example 180],protection (% of efficacy),Sphaerotheca fuliginea,at least 70%
same,protection (% of efficacy),[1],at least 70%
Cn1cc(C(=O)N(Cc2cccc3c2ccn3C)C2CC2)c(C(F)F)n1 [Example 227],protection,Pyrenophora teres,at least 70%
same,protection (% of efficacy),[1],at least 70%
Cn1cc(C(=O)N(Cc2ccc3ccn(C)c3c2)C2CC2)c(C(F)F)n1 [Example 229],protection (% of efficacy),[1],at least 70%
COc1nn(C)cc1C(=O)N(Cc1cccc2ncccc12)C1CC1 [Example 190],protection (% of efficacy),[1],at least 70%
Cc1nn(C)c(F)c1C(=O)N(Cc1ccc2ccn(C)c2c1)C1CC1 [Example 228],protection,Pyrenophora teres,at least 70%
same,protection (% of efficacy),[1],at least 70%
Cc1nn(C)c(F)c1C(=O)N(Cc1cccc2c([N+](=O)[O-])cccc12)C1CC1 [Example 33],protection,Pyrenophora teres,at least 70%
same,protection (% of efficacy),[1],at least 70%
COc1ccc2ccc(OC)c(CN(C(=O)c3c(C(F)(F)F)nn(C)c3F)C3CC3)c2c1 [Example 221],protection (% of efficacy),Sphaerotheca fuliginea,at least 70%
same,protection (% of efficacy),[1],at least 70%
COc1nn(C)cc1C(=O)N(Cc1ccc(C)c2ccccc12)C1CC1 [Example 17],protection (% of efficacy),Sphaerotheca fuliginea,at least 70%
same,protection (% of efficacy),[1],at least 70%
Cc1nn(C)c(F)c1C(=O)N(Cc1nccc2ccccc12)C1CC1 [Example 22],protection (% of efficacy),Sphaerotheca fuliginea,at least 70%
same,protection (% of efficacy),[1],at least 70%
Cn1cc(C(=O)N(Cc2c3ccccc3cc3ccccc23)C2CC2)c(C(F)F)n1 [Example 32],protection (% of efficacy),[1],at least 70%
Cc1ccc(CN(C(=O)c2cn(C)nc2C(F)F)C2CC2)c2ccccc12 [Example 11],protection,Pyrenophora teres,at least 70%
same,protection (% of efficacy),Sphaerotheca fuliginea,at least 70%
same,protection (% of efficacy),[1],at least 70%
COc1ccc2c(CN(C(=O)c3cn(C)nc3C(F)F)C3CC3)cccc2c1 [Example 205],protection (% of efficacy),Sphaerotheca fuliginea,at least 70%
Cn1cc(C(=S)N(Cc2cccc3ccccc23)C2CC2)c(C(F)F)n1 [Example 72],protection,Pyrenophora teres,at least 70%
same,protection (% of efficacy),Sphaerotheca fuliginea,at least 70%
Cn1nc(C(F)(F)F)c(C(=O)N(Cc2cccc3cnccc23)C2CC2)c1F [Example 185],protection (% of efficacy),Sphaerotheca fuliginea,at least 70%
same,protection (% of efficacy),[1],at least 70%
COc1nn(C)cc1C(=O)N(Cc1cccc2ccccc12)C1CC1 [Example 74],protection (% of efficacy),Sphaerotheca fuliginea,at least 70%
same,protection (% of efficacy),[1],at least 70%
COc1nn(C)cc1C(=O)N(Cc1ccc(Br)c2ccccc12)C1CC1 [Example 56],protection (% of efficacy),Sphaerotheca fuliginea,at least 70%
same,protection (% of efficacy),[1],at least 70%
Cn1nc(C(F)(F)F)c(C(=O)N(Cc2ccnc3ccccc23)C2CC2)c1F [Example 105],protection (% of efficacy),Sphaerotheca fuliginea,at least 70%
same,protection (% of efficacy),[1],at least 70%
Cn1nc(C(F)(F)F)c(C(=O)N(Cc2ccnc3cc(Cl)cc(Cl)c23)C2CC2)c1F [Example 96],protection (% of efficacy),[1],at least 70%
CN(C)c1ccc(CN(C(=O)c2cn(C)nc2C(F)F)C2CC2)c2ccccc12 [Example 147],protection (% of efficacy),[1],at least 70%
Cn1cc(C(=O)N(Cc2cccc3ncccc23)C2CC2)c(C(F)F)n1 [Example 196],protection (% of efficacy),Sphaerotheca fuliginea,at least 70%
COc1ccc(CN(C(=O)c2cn(C)nc2C(F)F)C2CC2)c2ccccc12 [Example 116],protection,Pyrenophora teres,at least 70%
same,protection (% of efficacy),[1],at least 70%
Cc1nn(C)c(F)c1C(=S)N(Cc1ccc2ccccc2c1)C1CC1 [Example 3],protection,Pyrenophora teres,at least 70%
Cc1nn(C)c(F)c1C(=O)N(Cc1cccc2ncccc12)C1CC1 [Example 195],protection (% of efficacy),Sphaerotheca fuliginea,at least 70%
same,protection (% of efficacy),[1],at least 70%
Cn1nc(C(F)(F)F)c(C(=O)N(Cc2cccc3ncccc23)C2CC2)c1F [Example 194],protection (% of efficacy),Sphaerotheca fuliginea,at least 70%
same,protection (% of efficacy),[1],at least 70%
COc1ccc2ccc(OC)c(CN(C(=O)c3cn(C)cc3C(F)(F)F)C3CC3)c2c1 [Example 225],protection (% of efficacy),[1],at least 70%
CC(c1ccc(Br)c2ccccc12)N(C(=O)c1cn(C)nc1C(F)F)C1CC1 (stereo not drawn) [Example 59],protection,Pyrenophora teres,at least 70%
same,protection (% of efficacy),Sphaerotheca fuliginea,at least 70%
same,protection (% of efficacy),[1],at least 70%
Cn1cc(C(=O)N(Cc2ccc(Br)c3cccnc23)C2CC2)c(C(F)(F)F)c1 [Example 170],protection (% of efficacy),[1],at least 70%
Cn1cc(C(=O)N(Cc2ccc(Br)c3cccnc23)C2CC2)c(C(F)F)n1 [Example 168],protection,Pyrenophora teres,at least 70%
same,protection (% of efficacy),Sphaerotheca fuliginea,at least 70%
same,protection (% of efficacy),[1],at least 70%
Cc1cnc2cccc(CN(C(=O)c3c(C(F)(F)F)nn(C)c3F)C3CC3)c2c1 [Example 157],protection (% of efficacy),Sphaerotheca fuliginea,at least 70%
same,protection (% of efficacy),[1],at least 70%
Cc1cnc2cccc(CN(C(=O)c3cn(C)nc3C(F)F)C3CC3)c2c1 [Example 159],protection (% of efficacy),Sphaerotheca fuliginea,at least 70%
Cc1nn(C)c(F)c1C(=O)N(Cc1cccc2c1ccn2C)C1CC1 [Example 226],protection,Pyrenophora teres,at least 70%
same,protection (% of efficacy),[1],at least 70%
Cc1cc(C(=O)N(Cc2cccc3ncccc23)C2CC2)c(C)o1 [Example 192],protection (% of efficacy),[1],at least 70%
COc1nn(C)cc1C(=O)N(Cc1cccc2c(C(F)(F)F)cccc12)C1CC1 [Example 172],protection (% of efficacy),[1],at least 70%
CC(c1cccc2ccccc12)N(C(=O)c1cn(C)nc1C(F)F)C1CC1 (stereo not drawn) [Example 71],protection,Pyrenophora teres,at least 70%
same,protection (% of efficacy),Sphaerotheca fuliginea,at least 70%
same,protection (% of efficacy),[1],at least 70%
CC(c1cccc2ccccc12)N(C(=O)c1cn(C)cc1C(F)F)C1CC1 (stereo not drawn) [Example 82],protection,Pyrenophora teres,at least 70%
same,protection (% of efficacy),Sphaerotheca fuliginea,at least 70%
Cn1cc(C(=O)N(Cc2cccc3cccnc23)C2CC2)c(C(F)F)n1 [Example 51],protection (% of efficacy),Sphaerotheca fuliginea,at least 70%
same,protection (% of efficacy),[1],at least 70%
Cn1cc(C(=O)N(Cc2cccc3ccccc23)C2CC2)c(C(F)F)n1 [Example 70],protection (% of efficacy),Sphaerotheca fuliginea,at least 70%
same,protection (% of efficacy),[1],at least 70%
Cn1cc(C(=O)N(Cc2ccc(Br)c3ccccc23)C2CC2)c(C(F)F)n1 [Example 55],protection,Pyrenophora teres,at least 70%
same,protection (% of efficacy),Sphaerotheca fuliginea,at least 70%
same,protection (% of efficacy),[1],at least 70%
Cc1nn(C)c(F)c1C(=O)N(Cc1cccc2cccnc12)C1CC1 [Example 50],protection,Pyrenophora teres,at least 70%
same,protection (% of efficacy),Sphaerotheca fuliginea,at least 70%
same,protection (% of efficacy),[1],at least 70%
COc1nn(C)cc1C(=S)N(Cc1c(C)ccc2ccccc12)C1CC1 [Example 42],protection,Pyrenophora teres,at least 70%
same,protection (% of efficacy),Sphaerotheca fuliginea,at least 70%
CN(C)c1ccc(CN(C(=O)c2c(C(F)(F)F)nn(C)c2F)C2CC2)c2ccccc12 [Example 145],protection,Pyrenophora teres,at least 70%
same,protection (% of efficacy),[1],at least 70%
COc1ccc2ccc(OC)c(CN(C(=O)c3c(C)nn(C)c3F)C3CC3)c2c1 [Example 222],protection,Pyrenophora teres,at least 70%
same,protection (% of efficacy),Sphaerotheca fuliginea,at least 70%
CCC(c1cccc2ccccc12)N(C(=O)c1cn(C)nc1C(F)F)C1CC1 (stereo not drawn) [Example 86],protection,Pyrenophora teres,at least 70%
same,protection (% of efficacy),Sphaerotheca fuliginea,at least 70%
same,protection (% of efficacy),[1],at least 70%
COc1nn(C)cc1C(=O)N(Cc1ccc2ccccc2c1)C1CC1 [Example 7],protection (% of efficacy),[1],at least 70%
COc1ccc2ccccc2c1CN(C(=O)c1c(C)nn(C)c1F)C1CC1 [Example 128],protection (% of efficacy),Sphaerotheca fuliginea,at least 70%
same,protection (% of efficacy),[1],at least 70%
Cn1cc(C(=O)N(Cc2ccc3ccccc3c2)C2CC2)c(C(F)F)n1 [Example 5],protection (% of efficacy),[1],at least 70%
Cn1cc(C(=O)N(Cc2nccc3ccccc23)C2CC2)c(C(F)F)n1 [Example 23],protection (% of efficacy),Sphaerotheca fuliginea,at least 70%
same,protection (% of efficacy),[1],at least 70%
Cc1nn(C)c(F)c1C(=O)N(Cc1ccc(N(C)C)c2ccccc12)C1CC1 [Example 146],protection (% of efficacy),[1],at least 70%
COc1cc2ccccc2c(CN(C(=O)c2cn(C)cc2C(F)(F)F)C2CC2)c1OC [Example 140],protection (% of efficacy),[1],at least 70%
same,protection,[2],at least 70%

# — US8226966B2, “Fungicide N-6-membered fused (hetero) aryl-methylene-N-cycloalkyl carboxamide derivatives” (Bayer Cropscience AG, priority 2007, dated 2012)
